Residue numbers refer to the chain shown, from its start. Results are given in words; binding and its absence hold for the method and conditions named. For some of these results: Binding can be weak; no strength is given. For some of these results: In cells and extracts the contact can be indirect.
T1: OsDMC1B (rice) (UniProt Q7GBF7)
T1 sequence: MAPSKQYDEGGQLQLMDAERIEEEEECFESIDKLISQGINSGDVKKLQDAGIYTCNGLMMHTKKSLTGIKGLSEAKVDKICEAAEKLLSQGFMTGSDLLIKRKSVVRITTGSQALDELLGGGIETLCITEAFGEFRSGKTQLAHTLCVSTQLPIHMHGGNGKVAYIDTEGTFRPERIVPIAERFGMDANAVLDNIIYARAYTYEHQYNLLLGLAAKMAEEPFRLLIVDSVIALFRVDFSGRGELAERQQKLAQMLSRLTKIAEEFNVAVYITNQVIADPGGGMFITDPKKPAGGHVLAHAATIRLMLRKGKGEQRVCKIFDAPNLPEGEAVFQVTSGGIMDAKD

Protein sequences, listed by entry. Tags and fused reporters are not part of them.
UniProt Q7GBF8: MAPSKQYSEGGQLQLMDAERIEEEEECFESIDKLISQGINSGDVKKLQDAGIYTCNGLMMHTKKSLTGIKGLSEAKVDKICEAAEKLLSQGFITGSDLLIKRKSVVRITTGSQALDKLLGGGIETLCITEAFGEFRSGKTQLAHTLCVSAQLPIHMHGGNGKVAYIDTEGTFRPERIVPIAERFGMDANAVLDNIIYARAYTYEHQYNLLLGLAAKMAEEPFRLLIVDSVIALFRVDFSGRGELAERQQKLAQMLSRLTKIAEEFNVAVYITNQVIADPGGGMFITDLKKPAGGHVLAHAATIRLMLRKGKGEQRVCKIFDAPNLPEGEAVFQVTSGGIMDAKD

T2: OsDMC1A (rice) (UniProt Q7GBF8)
T2 sequence: T1 sequence with D8S, M93I, E117K, T150A, P288L

B1: OsDMC1B (protein, UniProt Q7GBF7 1-344)
chain: T1 sequence
B2: OsDMC1A (protein, UniProt Q7GBF8 1-344)
chain: T1 sequence with D8S, M93I, E117K, T150A, P288L

Key:
OsDMC1B (rice) [1] = target: T1, OsDMC1B (rice); assay: two-hybrid; pGBKT7 bait and pGADT7 prey in Y2H Gold yeast; selection on SD/-His-Ade-Trp-Leu medium containing X-alpha-Gal and AbA
OsDMC1A (rice) [2] = target: T2, OsDMC1A (rice); assay: as above
OsDMC1B (rice) [3] = target: T1, OsDMC1B (rice); assay: split reporter; BiFC with pSCYNE (SCN) and pSCYCE(R) (SCC) constructs in rice protoplasts; 28 °C in the dark for 18 h; CFP signals by confocal microscopy
OsDMC1A (rice) [4] = target: T2, OsDMC1A (rice); assay: as above
OsBRCA2 (rice) [5] = assay: two-hybrid; pGBKT7 bait and pGADT7 prey in Y2H Gold yeast; selection on SD/-His-Ade-Trp-Leu medium containing X-alpha-Gal and AbA
OsFIGL1 (rice) [6] = assay: as above
OsBRCA2 (rice) [7] = assay: split reporter; BiFC with pSCYNE (SCN) and pSCYCE(R) (SCC) constructs in rice protoplasts; 28 °C in the dark for 18 h; CFP signals by confocal microscopy
OsFIGL1 (rice) [8] = assay: as above

Molecule | binding (OsDMC1B (rice) [1]) | binding (OsDMC1A (rice) [2]) | binding (OsDMC1B (rice) [3]) | binding (OsDMC1A (rice) [4]) | binding (OsBRCA2 (rice) [5]) | binding (OsFIGL1 (rice) [6]) | binding (OsBRCA2 (rice) [7]) | binding (OsFIGL1 (rice) [8])
OsRAD51A2 (rice) | no binding | no binding | no binding | no binding |  |  |  | 
OsRAD51A1 (rice) | no binding | no binding | no binding | no binding |  |  |  | 
B1 |  |  |  |  | binds | binds | binds | binds
B2 |  |  |  |  | binds | binds | binds | binds
